# Laboratory results taken from the supplement of paper PMC6331611.
# ± gives the standard deviation of the averaged measurements. The full ranking holds about 1,600 compounds; the median of “normalized growth (OD600, IQM-normalized) in LPM” is about 1, and the lowest 2% start at about 0.014. This is one part of the list.
# Test system: Salmonella enterica serovar Typhimurium SL1344
# Test: normalized growth (OD600, IQM-normalized) in LPM (fraction of plate interquartile mean); higher = more bacterial growth (less inhibition)
# Conditions: LPM pH 5.8; 10 µM; 16 h
row,SMILES,normalized growth
1,CC(=O)[C@@]12O[C@](C)(c3ccccc3)O[C@@H]1C[C@H]1[C@@H]3CCC4=CC(=O)CC[C@]4(C)[C@H]3CC[C@@]12C,0.967 ± 0.06
2,CC(C)c1nc(N(C)S(C)(=O)=O)nc(-c2ccc(F)cc2)c1/C=C/[C@@H](O)C[C@@H](O)CC(=O)O,1.03 ± 0.097
3,Nc1ccc(S(=O)(=O)NC(=O)c2ccccc2)cc1,0.995 ± 0.04
4,C[N+](C)(C)CCOP(=O)(O)OP(=O)([O-])OC[C@H]1O[C@@H](n2ccc(N)nc2=O)[C@H](O)[C@@H]1O,1.04 ± 0.083
5,FCOC(C(F)(F)F)C(F)(F)F,0.92 ± 0.011
6,CCN(CC)CCCC(C)Nc1ccnc2cc(Cl)ccc12 (stereo not drawn),1.14 ± 0.056
7,CS(=O)(=O)c1ccc([C@@H](O)[C@@H](CF)NC(=O)C(Cl)Cl)cc1,0.0094 ± 0.00019
8,Cc1cccc(C)c1NC(=O)c1ccccc1C(=O)O,1.15 ± 0.12
9,c1ccc2c(c1)CCCC2C1=NCCN1 (stereo not drawn),1.06 ± 0.016
10,C[C@@H](O)[C@H]1C(=O)N2C(C(=O)O)=C(SCCNC=N)C[C@H]12,1.03 ± 0.081
11,Cc1ncc([N+](=O)[O-])n1C,0.99 ± 0.18
12,CCCCCN(C)CCC(O)(P(=O)(O)O)P(=O)(O)O,1.09 ± 0.081
13,C[Se]CC[C@H](N)C(=O)O,1.28 ± 0.072
14,C1N2CN3CN1CN(C2)C3,0.981 ± 0.077
15,CN(C)c1cnccn1,1.09 ± 0.013
16,CCn1cc(C(=O)O)c(=O)c2cc(F)c(N3CCNCC3)nc21,0.0514 ± 0.033
17,CC(=O)OCC(=O)NCCCOc1cccc(CN2CCCCC2)c1,1.07 ± 0.099
18,C=CCc1ccc(O)c(OC)c1,1.12 ± 0.12
19,OC[C@@H](O)[C@@H](O)[C@H](O)[C@H](O)CO,1.05 ± 0.022
20,O=C1OC(c2ccc(O)cc2)(c2ccc(O)cc2)c2ccccc21,1.07 ± 0.024
21,O=C(O)CN(CCN(CC(=O)O)CC(=O)O)CC(=O)O.[Na+].[Na+].[Na+],0.0403 ± 0.013
22,CC(C(=O)O)c1cccc(Oc2ccccc2)c1 (stereo not drawn),0.922 ± 0.0094
23,CCCc1ncc(C[n+]2ccccc2C)c(N)n1,0.977 ± 0.019
24,Cc1cn[nH]c1,0.962 ± 0.06
25,C[C@@H](O)CN(CCN(C[C@@H](C)O)C[C@@H](C)O)C[C@@H](C)O,1.17 ± 0.054
26,CC[N+](C)(C)c1cccc(O)c1,0.984 ± 0.071
27,Nc1[nH]cnc2ncnc1-2,0.993 ± 0.02

# Reprinted at random: 3 entries already listed
row,SMILES,normalized growth
4,C[N+](C)(C)CCOP(=O)(O)OP(=O)([O-])OC[C@H]1O[C@@H](n2ccc(N)nc2=O)[C@H](O)[C@@H]1O,1.04 ± 0.083
1,CC(=O)[C@@]12O[C@](C)(c3ccccc3)O[C@@H]1C[C@H]1[C@@H]3CCC4=CC(=O)CC[C@]4(C)[C@H]3CC[C@@]12C,0.967 ± 0.06
20,O=C1OC(c2ccc(O)cc2)(c2ccc(O)cc2)c2ccccc21,1.07 ± 0.024

# Continued.

row,SMILES,normalized growth
1,CC(=O)[C@@]1(O)CC[C@H]2[C@@H]3C=C(Cl)C4=CC(=O)[C@@H]5C[C@@H]5[C@]4(C)[C@H]3CC[C@@]21C,1.08 ± 0.17
2,O.O.O=C([O-])CN(CCN(CC(=O)[O-])CC(=O)O)CC(=O)O.[Na+].[Na+],0.213 ± 0.012
3,CCCOc1cc(N)ccc1C(=O)OCCN(CC)CC,1.014 ± 0.0067
4,OC(Cn1cncn1)(Cn1cncn1)c1ccc(F)cc1F,1.15 ± 0.044
5,NCCc1c[nH]cn1,0.971 ± 0.038
6,CCN[C@H]1CN(CCCOC)S(=O)(=O)c2sc(S(N)(=O)=O)cc21,1.1 ± 0.029
7,CC(C)c1c(C(=O)Nc2ccccc2)c(-c2ccccc2)c(-c2ccc(F)cc2)n1CC[C@@H](O)C[C@@H](O)CC(=O)O,1.3 ± 0.041
8,CC(=O)OCC(=O)[C@@]1(O)CC[C@H]2[C@@H]3CCC4=CC(=O)CC[C@]4(C)[C@H]3[C@@H](O)C[C@@]21C,1.03 ± 0.045
9,CCCCCCCCCCCCCCCC(=O)OC/C=C(C)/C=C/C=C(C)/C=C/C1=C(C)CCCC1(C)C,0.988 ± 0.048
10,C=CC(N)CCC(=O)O (stereo not drawn),1.19 ± 0.024
11,NS(=O)(=O)c1cc(C2(O)NC(=O)c3ccccc32)ccc1Cl (stereo not drawn),1.09 ± 0.14
12,CC(=O)OCC(=O)[C@@]1(O)CC[C@H]2[C@@H]3CCC4=CC(=O)CC[C@]4(C)[C@@]3(F)[C@@H](O)C[C@@]21C,1.09 ± 0.11
13,O=C(O)CCCCCCCC(=O)O,0.864 ± 0.053
14,FC(F)(F)C(Cl)Br (stereo not drawn),0.996 ± 0.069
15,O=C(O)CN1C(=O)c2cccc3cccc(c23)C1=O,0.982 ± 0.075
16,Cc1ccc(C(=O)c2ccc(CC(=O)O)n2C)cc1,0.999 ± 0.029
17,CCCCN(CCCC)CCCOC(=O)c1ccc(N)cc1,0.952 ± 0.054
18,CC(=O)OCC(=O)[C@@]1(O)CC[C@H]2[C@@H]3CCC4=CC(=O)C=C[C@]4(C)[C@@]3(Cl)[C@@H](Cl)C[C@@]21C,0.894 ± 0.024
19,Cc1nccnc1N1CCCCC1,0.952 ± 0.055
20,NNCCc1ccccc1,0.986 ± 0.067
21,CC(Cc1cccc(C(F)(F)F)c1)NCCOC(=O)c1ccccc1 (stereo not drawn),0.937 ± 0.029
22,CCCc1cc(C(N)=S)ccn1,1.062 ± 0.003
23,CC(=O)S[C@@H]1CC2=CC(=O)CC[C@]2(C)[C@H]2CC[C@@]3(C)[C@@H](CC[C@@]34CCC(=O)O4)[C@H]12,1.01 ± 0.026
24,N=C(N)NC(=N)NCCc1ccccc1,1.09 ± 0.045
25,CN1CCC(=C2c3ccccc3C=Cc3ccccc32)CC1,1.82 ± 0.28
26,CN1CCN(CC/C=C2/c3ccccc3Sc3ccc(S(=O)(=O)N(C)C)cc32)CC1,1.11 ± 0.043
